# Reference: ChEMBL document CHEMBL3436045 (Sci Rep, 2013)
# Sequences of proteins named here, by UniProt entry; tags and fusion partners are left off. A change or cut given only in a name is not applied to a line headed by its entry.
# UniProt Q13936: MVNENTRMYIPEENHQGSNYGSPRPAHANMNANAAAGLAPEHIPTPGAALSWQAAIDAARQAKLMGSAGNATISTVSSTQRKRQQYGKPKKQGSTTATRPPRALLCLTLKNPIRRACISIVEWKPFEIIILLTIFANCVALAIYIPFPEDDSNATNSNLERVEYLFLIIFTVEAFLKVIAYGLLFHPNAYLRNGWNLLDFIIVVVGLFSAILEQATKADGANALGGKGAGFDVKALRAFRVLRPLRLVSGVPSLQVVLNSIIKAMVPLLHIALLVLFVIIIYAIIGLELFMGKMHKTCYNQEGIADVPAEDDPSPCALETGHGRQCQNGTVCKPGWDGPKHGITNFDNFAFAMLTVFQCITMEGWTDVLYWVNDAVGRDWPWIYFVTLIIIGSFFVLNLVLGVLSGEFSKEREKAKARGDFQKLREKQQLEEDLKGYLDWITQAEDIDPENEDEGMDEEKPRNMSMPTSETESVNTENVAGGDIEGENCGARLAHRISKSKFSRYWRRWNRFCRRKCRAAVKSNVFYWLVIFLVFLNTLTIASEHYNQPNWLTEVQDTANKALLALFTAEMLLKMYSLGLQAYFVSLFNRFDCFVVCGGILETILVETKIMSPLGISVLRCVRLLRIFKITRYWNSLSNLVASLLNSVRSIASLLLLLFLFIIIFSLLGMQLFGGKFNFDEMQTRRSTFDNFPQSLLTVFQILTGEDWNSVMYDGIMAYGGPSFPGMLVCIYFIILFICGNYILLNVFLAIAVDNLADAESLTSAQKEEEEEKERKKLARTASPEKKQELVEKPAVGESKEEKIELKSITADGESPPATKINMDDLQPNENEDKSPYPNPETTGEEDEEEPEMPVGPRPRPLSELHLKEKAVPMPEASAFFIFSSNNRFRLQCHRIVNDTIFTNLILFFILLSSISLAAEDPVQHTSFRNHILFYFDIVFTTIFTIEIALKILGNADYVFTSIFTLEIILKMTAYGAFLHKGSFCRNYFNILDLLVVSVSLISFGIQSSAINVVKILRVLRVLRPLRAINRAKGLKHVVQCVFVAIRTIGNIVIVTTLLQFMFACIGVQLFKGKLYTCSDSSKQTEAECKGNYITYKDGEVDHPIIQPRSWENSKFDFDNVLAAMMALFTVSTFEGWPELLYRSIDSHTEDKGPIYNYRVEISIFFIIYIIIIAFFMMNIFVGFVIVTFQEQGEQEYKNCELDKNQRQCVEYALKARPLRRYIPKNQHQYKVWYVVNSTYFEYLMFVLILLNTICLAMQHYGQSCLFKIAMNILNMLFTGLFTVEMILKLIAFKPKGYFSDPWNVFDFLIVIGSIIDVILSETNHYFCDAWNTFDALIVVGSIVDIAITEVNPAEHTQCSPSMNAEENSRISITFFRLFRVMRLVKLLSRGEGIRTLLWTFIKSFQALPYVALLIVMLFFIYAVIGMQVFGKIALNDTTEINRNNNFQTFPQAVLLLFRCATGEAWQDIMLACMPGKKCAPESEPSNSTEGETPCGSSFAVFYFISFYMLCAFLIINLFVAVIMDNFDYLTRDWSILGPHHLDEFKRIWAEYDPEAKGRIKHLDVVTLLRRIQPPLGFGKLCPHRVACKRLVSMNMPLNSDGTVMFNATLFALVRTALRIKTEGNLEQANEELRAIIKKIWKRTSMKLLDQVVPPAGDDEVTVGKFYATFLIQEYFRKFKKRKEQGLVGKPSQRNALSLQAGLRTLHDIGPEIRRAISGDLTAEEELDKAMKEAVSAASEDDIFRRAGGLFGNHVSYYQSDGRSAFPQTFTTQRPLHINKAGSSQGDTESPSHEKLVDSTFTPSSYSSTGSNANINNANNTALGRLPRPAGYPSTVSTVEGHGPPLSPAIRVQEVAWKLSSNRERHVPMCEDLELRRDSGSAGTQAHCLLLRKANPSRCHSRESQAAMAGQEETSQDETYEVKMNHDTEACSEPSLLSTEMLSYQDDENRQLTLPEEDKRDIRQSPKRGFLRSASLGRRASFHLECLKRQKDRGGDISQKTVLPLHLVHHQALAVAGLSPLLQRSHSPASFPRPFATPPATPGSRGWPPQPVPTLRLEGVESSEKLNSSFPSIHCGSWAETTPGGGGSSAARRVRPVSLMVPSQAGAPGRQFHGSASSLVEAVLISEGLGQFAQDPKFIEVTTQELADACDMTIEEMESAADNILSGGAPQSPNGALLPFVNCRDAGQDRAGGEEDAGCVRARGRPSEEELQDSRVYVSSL
# UniProt Q13698: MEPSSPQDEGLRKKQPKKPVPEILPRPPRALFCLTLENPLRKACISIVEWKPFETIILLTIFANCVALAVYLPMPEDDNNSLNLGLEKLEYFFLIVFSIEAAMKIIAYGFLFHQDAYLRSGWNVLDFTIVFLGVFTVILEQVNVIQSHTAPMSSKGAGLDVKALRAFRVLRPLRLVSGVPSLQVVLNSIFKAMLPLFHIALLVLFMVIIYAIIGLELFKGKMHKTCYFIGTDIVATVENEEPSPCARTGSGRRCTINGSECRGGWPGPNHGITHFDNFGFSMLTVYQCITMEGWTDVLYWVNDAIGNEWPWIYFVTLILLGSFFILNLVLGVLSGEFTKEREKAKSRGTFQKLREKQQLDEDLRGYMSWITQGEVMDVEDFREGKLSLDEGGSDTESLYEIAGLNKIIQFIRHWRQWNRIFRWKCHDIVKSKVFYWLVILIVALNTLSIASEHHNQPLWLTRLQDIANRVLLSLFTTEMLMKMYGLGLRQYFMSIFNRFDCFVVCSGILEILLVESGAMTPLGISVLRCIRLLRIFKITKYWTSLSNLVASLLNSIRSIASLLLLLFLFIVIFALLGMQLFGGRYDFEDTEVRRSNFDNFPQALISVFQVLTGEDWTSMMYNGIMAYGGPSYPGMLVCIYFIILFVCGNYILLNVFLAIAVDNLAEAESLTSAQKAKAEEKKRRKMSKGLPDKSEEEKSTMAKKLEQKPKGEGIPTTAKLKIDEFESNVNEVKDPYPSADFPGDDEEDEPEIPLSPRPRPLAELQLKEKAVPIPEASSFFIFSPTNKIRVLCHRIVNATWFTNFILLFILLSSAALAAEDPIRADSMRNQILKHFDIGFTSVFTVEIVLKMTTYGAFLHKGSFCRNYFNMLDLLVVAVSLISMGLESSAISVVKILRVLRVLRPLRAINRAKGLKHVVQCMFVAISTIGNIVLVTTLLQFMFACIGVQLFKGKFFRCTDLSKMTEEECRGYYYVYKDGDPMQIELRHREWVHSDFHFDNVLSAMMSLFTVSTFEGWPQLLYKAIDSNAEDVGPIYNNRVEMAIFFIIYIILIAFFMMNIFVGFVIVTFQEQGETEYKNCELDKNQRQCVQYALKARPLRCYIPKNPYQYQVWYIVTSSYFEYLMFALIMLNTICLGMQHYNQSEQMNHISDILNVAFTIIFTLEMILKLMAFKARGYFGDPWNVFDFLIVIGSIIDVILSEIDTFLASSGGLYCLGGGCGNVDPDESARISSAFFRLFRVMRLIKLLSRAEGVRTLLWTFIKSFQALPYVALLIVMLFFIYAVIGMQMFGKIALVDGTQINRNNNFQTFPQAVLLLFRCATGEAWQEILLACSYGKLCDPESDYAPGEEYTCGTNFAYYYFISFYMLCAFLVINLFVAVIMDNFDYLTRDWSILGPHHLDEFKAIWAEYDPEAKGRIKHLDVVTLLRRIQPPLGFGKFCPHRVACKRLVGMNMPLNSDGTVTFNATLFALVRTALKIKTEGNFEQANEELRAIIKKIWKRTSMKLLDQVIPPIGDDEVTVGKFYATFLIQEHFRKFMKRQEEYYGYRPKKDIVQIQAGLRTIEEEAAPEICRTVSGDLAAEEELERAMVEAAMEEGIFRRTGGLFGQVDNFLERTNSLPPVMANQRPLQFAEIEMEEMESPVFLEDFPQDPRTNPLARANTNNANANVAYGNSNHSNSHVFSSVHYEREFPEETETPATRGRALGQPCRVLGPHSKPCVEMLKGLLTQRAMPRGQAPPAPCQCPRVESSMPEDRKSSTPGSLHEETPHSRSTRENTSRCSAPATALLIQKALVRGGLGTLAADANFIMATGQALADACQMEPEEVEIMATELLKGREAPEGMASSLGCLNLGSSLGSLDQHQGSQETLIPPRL
# UniProt Q01668: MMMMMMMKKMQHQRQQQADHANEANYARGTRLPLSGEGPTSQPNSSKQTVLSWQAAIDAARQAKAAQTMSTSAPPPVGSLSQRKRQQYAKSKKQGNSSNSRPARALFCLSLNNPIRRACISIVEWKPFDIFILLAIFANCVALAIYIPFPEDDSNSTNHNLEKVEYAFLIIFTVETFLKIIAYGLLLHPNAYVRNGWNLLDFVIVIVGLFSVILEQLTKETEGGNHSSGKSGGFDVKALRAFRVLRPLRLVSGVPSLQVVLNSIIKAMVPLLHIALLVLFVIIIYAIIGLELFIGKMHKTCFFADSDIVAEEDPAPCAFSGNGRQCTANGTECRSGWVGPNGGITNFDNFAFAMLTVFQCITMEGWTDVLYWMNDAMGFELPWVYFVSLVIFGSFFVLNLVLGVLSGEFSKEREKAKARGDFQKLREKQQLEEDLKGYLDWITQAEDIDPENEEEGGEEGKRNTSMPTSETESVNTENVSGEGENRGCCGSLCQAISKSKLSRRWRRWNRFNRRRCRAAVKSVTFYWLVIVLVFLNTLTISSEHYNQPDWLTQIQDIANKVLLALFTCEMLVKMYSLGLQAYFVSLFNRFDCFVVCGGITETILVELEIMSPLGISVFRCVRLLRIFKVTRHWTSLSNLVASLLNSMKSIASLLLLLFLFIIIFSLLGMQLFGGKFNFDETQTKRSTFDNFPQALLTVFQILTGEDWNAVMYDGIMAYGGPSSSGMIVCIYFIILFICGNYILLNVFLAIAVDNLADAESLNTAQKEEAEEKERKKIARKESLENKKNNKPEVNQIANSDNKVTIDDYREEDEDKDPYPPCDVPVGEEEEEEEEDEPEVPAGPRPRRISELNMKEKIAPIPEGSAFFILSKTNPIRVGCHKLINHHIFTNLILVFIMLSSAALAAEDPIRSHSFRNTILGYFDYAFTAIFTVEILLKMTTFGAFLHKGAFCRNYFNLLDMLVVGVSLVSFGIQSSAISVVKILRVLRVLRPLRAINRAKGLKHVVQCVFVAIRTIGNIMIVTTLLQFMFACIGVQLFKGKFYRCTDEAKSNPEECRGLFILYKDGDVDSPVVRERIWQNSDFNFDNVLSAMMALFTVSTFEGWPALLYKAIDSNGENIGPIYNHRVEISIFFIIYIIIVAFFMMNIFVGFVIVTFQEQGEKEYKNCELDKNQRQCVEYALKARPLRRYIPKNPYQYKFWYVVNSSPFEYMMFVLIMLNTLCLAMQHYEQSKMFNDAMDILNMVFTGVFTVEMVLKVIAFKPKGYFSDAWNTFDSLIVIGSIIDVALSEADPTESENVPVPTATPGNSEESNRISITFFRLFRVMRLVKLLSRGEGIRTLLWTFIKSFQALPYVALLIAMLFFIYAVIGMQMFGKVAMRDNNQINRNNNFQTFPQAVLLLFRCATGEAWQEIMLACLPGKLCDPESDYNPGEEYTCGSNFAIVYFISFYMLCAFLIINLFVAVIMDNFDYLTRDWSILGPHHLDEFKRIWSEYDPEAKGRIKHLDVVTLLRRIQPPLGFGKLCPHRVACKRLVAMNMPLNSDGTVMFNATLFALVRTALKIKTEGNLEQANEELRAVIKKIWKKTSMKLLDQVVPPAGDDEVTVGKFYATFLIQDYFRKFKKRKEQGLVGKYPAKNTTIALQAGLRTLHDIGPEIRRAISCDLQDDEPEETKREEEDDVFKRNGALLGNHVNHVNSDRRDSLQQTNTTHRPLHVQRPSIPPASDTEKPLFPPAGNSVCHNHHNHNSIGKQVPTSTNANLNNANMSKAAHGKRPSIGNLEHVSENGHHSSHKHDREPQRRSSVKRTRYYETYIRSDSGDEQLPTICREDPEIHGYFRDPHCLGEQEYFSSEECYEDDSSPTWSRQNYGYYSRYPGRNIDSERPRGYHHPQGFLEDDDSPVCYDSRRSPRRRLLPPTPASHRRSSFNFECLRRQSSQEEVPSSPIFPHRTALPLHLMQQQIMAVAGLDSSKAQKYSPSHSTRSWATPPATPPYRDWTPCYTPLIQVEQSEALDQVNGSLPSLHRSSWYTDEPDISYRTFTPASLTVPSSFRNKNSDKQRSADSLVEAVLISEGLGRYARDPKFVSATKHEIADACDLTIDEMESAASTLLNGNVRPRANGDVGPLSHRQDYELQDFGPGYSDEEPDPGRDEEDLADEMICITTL
# Target: Voltage-gated L-type calcium channel (Homo sapiens, UniProt Q13936+Q13698+Q01668+O60840)
# Experiment: Inhibition of Cav1.2 current measured using QPatch automatic path clamp system in CHO cells expressing Cav1.2, beta-2 and alpha-2/delta-1 subunits
# Format: functional, cell-based, Cricetulus griseus
# Design: ca sol conc 1.8 mM, temp Ambient
structure (smiles),measurement,value
COc1cc2c(cc1OC)C(=O)C(CC1CCN(Cc3ccccc3)CC1)C2 (stereo unspecified) [DONEPEZIL],IC50,34.3 µM
